# From paper PMC8865852
# Amino acid sequences for entries named in this document (tags omitted). A change or cut given only in a name is not applied to a line headed by its entry.
# UniProt P46099: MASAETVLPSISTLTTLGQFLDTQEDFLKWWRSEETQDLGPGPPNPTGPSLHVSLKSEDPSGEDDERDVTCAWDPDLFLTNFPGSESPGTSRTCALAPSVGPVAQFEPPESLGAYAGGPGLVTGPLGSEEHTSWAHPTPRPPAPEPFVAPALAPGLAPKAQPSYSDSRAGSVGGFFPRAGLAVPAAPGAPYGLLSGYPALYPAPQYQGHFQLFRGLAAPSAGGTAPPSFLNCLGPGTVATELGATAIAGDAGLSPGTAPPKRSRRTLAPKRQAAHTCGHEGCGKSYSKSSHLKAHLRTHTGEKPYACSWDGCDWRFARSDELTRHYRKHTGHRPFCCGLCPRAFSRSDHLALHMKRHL
# For at least one entry, the source does not settle the construct or the ends of the probe. Results from cells or extracts need not show a direct contact. No signal at the amounts used counts as a negative. At least one verdict rests on a figure or table, not on a statement of the authors.
# Target: KLF1 (EKLF) (UniProt P46099)
# Assay: EMSA
# Conditions: COS-7 nuclear extract, 6% native PAGE in TBE (45 mM Tris, 45 mM boric acid, 1 mM EDTA), 4 C, 250 V, 1 h 40 min, binding buffer not given, protein in a lysate after overexpression, label: 32P on sense strand 5' end
sequence,measurement,setting,value
GGCCAGCCCCGCCTTGACCAATA (double strand) [HBG2 -132 to -110 -123T>C/-124T>C],binding result,"modest binding, supershift with anti-KLF1",binds
GGCCAGCCTTGCCTTGACCAATA (double strand) [HBG2 -132 to -110 WT],binding result,,no binding
TAGAGCCACACCCTGGTAAG (double strand) [Hbbt1 CACCC (KLF1 positive control)],binding result,positive control,binds
